Pks13 thioesterase: 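Enzyme assay of the thioesterase domain of polyketide synthase 13; the read-out is not stated. Target: Polyketide synthase Pks13, Mycobacterium tuberculosis (UniProt I6X8D2). Concentration: 30 µM. The record gives no direction; the compounds picked for IC50 retests had high values, so higher reads as stronger inhibition. Of about 67,000 compounds tested this way, about 300 (0.46%) reached 50% or more in at least one test.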
PfKRS1: 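Lysine-tRNA ligase, Plasmodium falciparum 3D7 (UniProt Q8IDJ8). Enzyme assay of the cytosolic lysyl-tRNA synthetase in 384-well plates, read by luminescence. Compounds at 30 µM. Direction is inferred from only a few compounds that gave an IC50; most scored high, so higher reads as stronger inhibition. About 69,000 compounds were tested under these conditions; 0.071% (about 49) showed 50% or more at least once.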
CoaBC: 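Enzyme assay of CoaBC with a phosphate dye (Biomol Green) read at 650 nm. Target: Coenzyme A biosynthesis protein CoaBC, Mycobacterium tuberculosis (UniProt P9WNZ1). Compounds at 30 µM. Higher reads as stronger inhibition, judged from the few compounds that gave an IC50. Most strong results did not repeat in a second test. Size under these conditions: about 67,000 compounds, about 40 of them at 50% or above in at least one test.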

Sequences of proteins named here, by UniProt entry; tags and fusion partners are left off. Residues count along the entry.
UniProt I6X8D2, whole entry: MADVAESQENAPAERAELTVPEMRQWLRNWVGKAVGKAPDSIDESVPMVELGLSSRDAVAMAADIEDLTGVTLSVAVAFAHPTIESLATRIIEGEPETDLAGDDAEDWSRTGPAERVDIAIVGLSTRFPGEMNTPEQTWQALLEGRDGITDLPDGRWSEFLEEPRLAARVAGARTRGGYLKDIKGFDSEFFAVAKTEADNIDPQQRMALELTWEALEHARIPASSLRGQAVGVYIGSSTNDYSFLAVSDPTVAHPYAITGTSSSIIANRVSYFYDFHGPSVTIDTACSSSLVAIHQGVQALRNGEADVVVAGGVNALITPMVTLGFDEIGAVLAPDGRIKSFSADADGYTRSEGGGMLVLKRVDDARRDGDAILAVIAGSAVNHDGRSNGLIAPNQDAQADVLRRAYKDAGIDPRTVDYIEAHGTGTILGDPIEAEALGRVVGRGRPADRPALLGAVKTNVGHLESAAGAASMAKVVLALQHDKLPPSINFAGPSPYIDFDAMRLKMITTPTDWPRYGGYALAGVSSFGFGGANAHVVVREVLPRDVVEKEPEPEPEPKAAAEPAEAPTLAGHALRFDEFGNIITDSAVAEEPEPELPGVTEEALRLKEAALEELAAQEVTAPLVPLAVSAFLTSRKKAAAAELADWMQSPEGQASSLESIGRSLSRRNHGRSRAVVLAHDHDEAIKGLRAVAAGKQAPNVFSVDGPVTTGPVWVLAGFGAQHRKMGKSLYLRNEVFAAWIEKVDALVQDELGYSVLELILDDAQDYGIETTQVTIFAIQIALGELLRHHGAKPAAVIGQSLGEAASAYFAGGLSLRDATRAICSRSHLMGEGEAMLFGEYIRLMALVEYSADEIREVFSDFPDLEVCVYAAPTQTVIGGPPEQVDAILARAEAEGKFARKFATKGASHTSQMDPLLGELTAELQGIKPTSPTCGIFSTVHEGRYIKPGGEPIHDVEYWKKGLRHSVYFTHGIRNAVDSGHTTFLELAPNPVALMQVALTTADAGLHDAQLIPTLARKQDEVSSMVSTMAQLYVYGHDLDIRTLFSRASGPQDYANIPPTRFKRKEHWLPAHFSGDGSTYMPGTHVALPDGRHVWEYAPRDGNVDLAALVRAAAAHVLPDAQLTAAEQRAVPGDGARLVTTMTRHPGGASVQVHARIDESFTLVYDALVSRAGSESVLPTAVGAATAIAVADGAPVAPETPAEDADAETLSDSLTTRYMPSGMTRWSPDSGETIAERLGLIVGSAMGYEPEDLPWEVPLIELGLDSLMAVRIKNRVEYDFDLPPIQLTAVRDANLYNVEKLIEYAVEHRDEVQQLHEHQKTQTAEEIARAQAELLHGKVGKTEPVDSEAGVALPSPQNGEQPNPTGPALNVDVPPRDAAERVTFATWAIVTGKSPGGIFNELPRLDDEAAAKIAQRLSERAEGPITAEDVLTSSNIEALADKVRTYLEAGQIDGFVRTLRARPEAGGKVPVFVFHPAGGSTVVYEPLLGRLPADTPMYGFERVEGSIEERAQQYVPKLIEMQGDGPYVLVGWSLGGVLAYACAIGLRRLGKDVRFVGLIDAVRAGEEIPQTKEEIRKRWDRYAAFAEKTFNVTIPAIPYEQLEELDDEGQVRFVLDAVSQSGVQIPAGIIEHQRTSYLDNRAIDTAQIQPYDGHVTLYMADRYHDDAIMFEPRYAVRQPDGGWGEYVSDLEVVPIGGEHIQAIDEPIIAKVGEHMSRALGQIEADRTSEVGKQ
UniProt Q8IDJ8, 1-583: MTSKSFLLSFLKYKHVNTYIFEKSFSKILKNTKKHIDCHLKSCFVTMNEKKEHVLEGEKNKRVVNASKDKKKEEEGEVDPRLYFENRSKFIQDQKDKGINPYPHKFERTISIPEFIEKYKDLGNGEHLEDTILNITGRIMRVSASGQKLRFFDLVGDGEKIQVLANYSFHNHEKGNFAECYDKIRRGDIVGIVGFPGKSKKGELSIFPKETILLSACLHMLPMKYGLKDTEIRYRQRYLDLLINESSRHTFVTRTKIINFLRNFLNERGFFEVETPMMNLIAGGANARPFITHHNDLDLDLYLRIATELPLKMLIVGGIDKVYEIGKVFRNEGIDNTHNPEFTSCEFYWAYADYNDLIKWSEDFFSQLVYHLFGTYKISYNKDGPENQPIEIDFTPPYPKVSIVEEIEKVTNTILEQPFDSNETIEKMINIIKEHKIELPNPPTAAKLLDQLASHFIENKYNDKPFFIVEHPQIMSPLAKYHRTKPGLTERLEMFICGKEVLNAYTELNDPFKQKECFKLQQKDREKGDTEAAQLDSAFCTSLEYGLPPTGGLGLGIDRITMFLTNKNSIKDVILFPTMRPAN
UniProt P9WNZ1, whole entry: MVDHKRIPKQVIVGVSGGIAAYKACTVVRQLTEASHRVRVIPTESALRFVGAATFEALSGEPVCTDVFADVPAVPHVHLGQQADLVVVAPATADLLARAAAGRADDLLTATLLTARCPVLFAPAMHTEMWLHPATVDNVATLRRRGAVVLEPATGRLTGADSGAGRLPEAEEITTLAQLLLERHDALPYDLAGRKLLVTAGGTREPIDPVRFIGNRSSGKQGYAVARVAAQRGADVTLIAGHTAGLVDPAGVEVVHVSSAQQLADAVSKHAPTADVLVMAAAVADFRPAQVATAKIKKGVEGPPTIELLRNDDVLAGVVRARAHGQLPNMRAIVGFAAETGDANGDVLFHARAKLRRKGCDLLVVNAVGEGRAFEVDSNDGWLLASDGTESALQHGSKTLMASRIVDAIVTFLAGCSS

Results are given as percent effect.
The record does not define 0% and 100%; most values in the screen are far below 50% and negative numbers occur (in some assays of this library far below -100).
This is an unselected part of the compounds tested.

{"smiles": "CC(C)(C)CC(=O)NCCCn1cncn1", "PfKRS1": 9.334, "CoaBC": -5.837}
{"smiles": "O=c1cc(CN2CC[C@H]3CC[C@@H](C2)N3)c2cccc3c2n1CCC3", "Pks13 thioesterase": -25.14, "PfKRS1": -0.08293, "CoaBC": 1.378}
{"smiles": "CCc1cnc(C)nc1NC(C)C(=O)Nc1cc(F)ccc1C", "stereo": "centres unmarked", "Pks13 thioesterase": -23.56, "PfKRS1": -1.985, "CoaBC": 7.843}
{"smiles": "O=C(CN1CCCC1=O)N1CCC(O)(Cn2ccc3ccncc32)CC1", "Pks13 thioesterase": 5.431, "PfKRS1": 1.605, "CoaBC": 2.107}
{"smiles": "NC(=O)CCn1ccc(NC(=O)c2ccc(Br)o2)n1", "Pks13 thioesterase": -19.87, "PfKRS1": 11.61, "CoaBC": -4.89}
{"smiles": "CCc1ccc(CN2CCc3[nH]nc(C(=O)N4CCNC(=O)C4)c3C2)o1", "Pks13 thioesterase": -27.27, "PfKRS1": 8.74}
{"smiles": "CC1CCCCN1C(=O)CCc1nnc(-c2ccccc2)o1", "stereo": "centres unmarked", "Pks13 thioesterase": -7.049, "PfKRS1": 1.526, "CoaBC": 18.93}
{"smiles": "COCc1cc(O)nc(C2CCCN(Cc3ccc(F)cc3)C2)n1", "stereo": "centres unmarked", "Pks13 thioesterase": -0.1371, "PfKRS1": 1.185, "CoaBC": 0.9709}
{"smiles": "Cn1c(Cn2cccn2)nnc1C1CCN(Cc2cccnc2N)CC1", "Pks13 thioesterase": -0.1871, "PfKRS1": 1.302, "CoaBC": -2.11}
{"smiles": "Cc1ccccc1C(=O)NC(C)CN1CCOC1=O", "stereo": "centres unmarked", "Pks13 thioesterase": -13.87, "PfKRS1": 0.27, "CoaBC": 11.09}
{"smiles": "CN1[C@H]2CC[C@@H]1CN(c1cc(Sc3cccs3)nc(N)n1)CC2", "Pks13 thioesterase": 15.33, "PfKRS1": 5.862, "CoaBC": 2.033}
{"smiles": "CC(C)N1CCOCC2(CCCN(C(=O)c3cncn3C)C2)C1", "stereo": "centres unmarked", "Pks13 thioesterase": 2.254, "PfKRS1": -1.928}
{"smiles": "CN1C(=O)CC(C(=O)O)C12CCN(Cc1cc(F)ccc1Cl)CC2", "stereo": "centres unmarked", "PfKRS1": 4.335, "CoaBC": 5.447}
{"smiles": "Cc1nc2c(c(N[C@@H](CO)C(N)=O)n1)Cc1ccccc1OC2", "Pks13 thioesterase": -7.627, "PfKRS1": 2.119, "CoaBC": 5.897}
{"smiles": "CN(C)c1ncccc1CNS(=O)(=O)c1ccc(F)c(F)c1", "Pks13 thioesterase": -21.49, "PfKRS1": 1.46, "CoaBC": 1.312}
{"smiles": "Cn1c(=O)oc2ccc(Nc3ncc(C#N)cc3Cl)cc21", "Pks13 thioesterase": -1.719, "PfKRS1": 0.3781, "CoaBC": 2.941}
{"smiles": "Cn1cnnc1SCC(=O)NC1CC(=O)N(CCc2ccccc2)C1", "stereo": "centres unmarked", "Pks13 thioesterase": -7.226, "PfKRS1": -1.098, "CoaBC": -1.119}
{"smiles": "Cc1ncsc1CN1C[C@@H]2CN(S(C)(=O)=O)CCO[C@@H]2C1", "Pks13 thioesterase": -12.75, "PfKRS1": 5.569, "CoaBC": 3.448}
{"smiles": "Cc1cnn(C(C)C2CC2)c1NC(=O)c1cnccn1", "stereo": "centres unmarked", "Pks13 thioesterase": -9.036, "PfKRS1": 0.6442, "CoaBC": 1.754}
{"smiles": "CC(=O)NC1CCCN(C(=O)NCc2cccnc2N(C)C)C1", "stereo": "centres unmarked", "Pks13 thioesterase": -11.39, "PfKRS1": 0.8255, "CoaBC": 5.867}
{"smiles": "C[C@H]1C[C@@H]2CCN(C(=O)c3cnccn3)C[C@H]2O1", "Pks13 thioesterase": 16.39, "PfKRS1": -3.814, "CoaBC": 6.767}

Data taken from ChEMBL document CHEMBL3988442, “University of Dundee, Small-Polar-MMV Screening Library” (2021).